# ± gives the standard deviation of the averaged measurements. Only a part is listed here, and it is no random draw.
# By UniProt entry, the sequences of proteins in these tests, tags left out. Where a name states a change or a piece, a line headed by the entry shows the natural chain unless it says otherwise.
# UniProt P39687: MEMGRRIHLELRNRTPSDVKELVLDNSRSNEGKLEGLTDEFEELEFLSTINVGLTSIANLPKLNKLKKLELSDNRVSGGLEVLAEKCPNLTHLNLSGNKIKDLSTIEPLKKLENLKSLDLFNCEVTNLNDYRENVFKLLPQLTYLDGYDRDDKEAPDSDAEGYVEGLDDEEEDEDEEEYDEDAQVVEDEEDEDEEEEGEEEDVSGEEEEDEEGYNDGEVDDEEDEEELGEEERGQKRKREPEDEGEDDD
# UniProt P51532, whole entry: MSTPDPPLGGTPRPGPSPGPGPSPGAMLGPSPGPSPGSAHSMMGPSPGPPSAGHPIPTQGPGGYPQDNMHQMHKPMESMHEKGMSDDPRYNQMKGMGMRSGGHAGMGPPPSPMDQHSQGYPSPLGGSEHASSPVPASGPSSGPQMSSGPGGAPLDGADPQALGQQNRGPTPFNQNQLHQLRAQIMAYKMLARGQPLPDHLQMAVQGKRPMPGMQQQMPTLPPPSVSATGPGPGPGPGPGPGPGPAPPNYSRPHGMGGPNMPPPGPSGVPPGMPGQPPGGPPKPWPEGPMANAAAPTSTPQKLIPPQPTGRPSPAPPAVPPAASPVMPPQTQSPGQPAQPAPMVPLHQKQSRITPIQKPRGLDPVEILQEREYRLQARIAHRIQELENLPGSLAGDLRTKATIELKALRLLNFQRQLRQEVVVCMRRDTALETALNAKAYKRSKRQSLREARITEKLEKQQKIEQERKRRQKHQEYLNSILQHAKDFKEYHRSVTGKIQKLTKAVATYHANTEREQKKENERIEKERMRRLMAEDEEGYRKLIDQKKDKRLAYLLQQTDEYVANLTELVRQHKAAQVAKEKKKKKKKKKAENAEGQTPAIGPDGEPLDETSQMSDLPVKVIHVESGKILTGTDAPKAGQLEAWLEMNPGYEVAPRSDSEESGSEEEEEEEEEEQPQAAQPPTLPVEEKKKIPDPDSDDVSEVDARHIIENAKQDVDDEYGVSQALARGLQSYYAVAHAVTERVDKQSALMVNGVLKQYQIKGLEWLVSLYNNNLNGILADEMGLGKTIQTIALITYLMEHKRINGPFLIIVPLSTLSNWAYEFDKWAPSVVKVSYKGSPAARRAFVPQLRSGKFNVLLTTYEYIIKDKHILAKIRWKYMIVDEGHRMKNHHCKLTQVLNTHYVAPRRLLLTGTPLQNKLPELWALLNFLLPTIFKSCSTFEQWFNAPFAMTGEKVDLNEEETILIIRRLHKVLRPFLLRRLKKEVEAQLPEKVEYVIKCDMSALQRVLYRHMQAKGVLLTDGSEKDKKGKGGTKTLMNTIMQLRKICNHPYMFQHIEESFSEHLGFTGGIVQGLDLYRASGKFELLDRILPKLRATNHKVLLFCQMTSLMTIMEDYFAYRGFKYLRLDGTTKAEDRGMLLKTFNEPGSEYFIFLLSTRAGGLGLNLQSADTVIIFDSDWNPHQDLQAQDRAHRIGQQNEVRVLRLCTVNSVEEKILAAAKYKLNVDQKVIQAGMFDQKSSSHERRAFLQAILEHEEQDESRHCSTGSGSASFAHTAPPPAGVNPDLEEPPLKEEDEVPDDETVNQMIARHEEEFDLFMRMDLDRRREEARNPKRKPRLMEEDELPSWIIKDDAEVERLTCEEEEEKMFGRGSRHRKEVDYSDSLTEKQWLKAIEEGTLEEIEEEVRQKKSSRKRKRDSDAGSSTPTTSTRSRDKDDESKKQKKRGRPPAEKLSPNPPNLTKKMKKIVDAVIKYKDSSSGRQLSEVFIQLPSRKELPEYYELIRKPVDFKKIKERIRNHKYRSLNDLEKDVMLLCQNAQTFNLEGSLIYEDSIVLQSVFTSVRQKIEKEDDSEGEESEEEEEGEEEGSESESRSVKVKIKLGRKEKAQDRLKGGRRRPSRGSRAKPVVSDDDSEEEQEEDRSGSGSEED
# UniProt P42574: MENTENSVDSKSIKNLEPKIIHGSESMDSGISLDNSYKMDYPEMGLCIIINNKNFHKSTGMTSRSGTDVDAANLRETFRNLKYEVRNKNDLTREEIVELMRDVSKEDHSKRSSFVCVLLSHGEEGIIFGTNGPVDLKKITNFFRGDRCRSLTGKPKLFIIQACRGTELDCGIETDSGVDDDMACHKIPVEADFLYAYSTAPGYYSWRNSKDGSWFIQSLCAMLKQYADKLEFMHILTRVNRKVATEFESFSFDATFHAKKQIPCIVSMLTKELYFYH
# UniProt P36956: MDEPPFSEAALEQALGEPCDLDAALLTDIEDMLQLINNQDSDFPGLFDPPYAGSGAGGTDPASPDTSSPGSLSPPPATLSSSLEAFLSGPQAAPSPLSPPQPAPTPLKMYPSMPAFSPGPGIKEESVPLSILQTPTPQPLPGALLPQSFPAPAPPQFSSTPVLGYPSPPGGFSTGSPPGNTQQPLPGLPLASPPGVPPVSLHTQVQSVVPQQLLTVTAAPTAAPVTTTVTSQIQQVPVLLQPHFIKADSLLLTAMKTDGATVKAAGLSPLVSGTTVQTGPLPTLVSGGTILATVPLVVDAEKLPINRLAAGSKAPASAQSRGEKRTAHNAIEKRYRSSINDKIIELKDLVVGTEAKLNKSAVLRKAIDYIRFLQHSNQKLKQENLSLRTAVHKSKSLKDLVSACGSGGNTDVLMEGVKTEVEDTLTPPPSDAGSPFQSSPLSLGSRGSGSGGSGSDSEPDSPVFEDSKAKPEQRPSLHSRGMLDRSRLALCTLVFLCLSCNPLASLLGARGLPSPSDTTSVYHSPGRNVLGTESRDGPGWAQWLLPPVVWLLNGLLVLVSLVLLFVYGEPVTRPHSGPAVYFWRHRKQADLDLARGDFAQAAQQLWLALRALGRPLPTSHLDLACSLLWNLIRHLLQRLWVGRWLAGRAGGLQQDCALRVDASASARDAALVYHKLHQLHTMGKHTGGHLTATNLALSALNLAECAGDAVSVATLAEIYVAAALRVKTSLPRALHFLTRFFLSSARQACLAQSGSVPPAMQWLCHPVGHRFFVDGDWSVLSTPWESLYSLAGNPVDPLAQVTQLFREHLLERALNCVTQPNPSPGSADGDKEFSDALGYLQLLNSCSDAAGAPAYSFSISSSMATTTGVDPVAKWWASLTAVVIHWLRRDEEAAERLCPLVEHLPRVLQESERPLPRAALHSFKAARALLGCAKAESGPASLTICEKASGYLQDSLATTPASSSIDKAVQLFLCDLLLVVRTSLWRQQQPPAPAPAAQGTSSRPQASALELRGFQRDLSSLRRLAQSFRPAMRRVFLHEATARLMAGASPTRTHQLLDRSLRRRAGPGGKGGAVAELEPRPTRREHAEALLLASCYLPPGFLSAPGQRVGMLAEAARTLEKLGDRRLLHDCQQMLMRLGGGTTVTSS
# UniProt P43007: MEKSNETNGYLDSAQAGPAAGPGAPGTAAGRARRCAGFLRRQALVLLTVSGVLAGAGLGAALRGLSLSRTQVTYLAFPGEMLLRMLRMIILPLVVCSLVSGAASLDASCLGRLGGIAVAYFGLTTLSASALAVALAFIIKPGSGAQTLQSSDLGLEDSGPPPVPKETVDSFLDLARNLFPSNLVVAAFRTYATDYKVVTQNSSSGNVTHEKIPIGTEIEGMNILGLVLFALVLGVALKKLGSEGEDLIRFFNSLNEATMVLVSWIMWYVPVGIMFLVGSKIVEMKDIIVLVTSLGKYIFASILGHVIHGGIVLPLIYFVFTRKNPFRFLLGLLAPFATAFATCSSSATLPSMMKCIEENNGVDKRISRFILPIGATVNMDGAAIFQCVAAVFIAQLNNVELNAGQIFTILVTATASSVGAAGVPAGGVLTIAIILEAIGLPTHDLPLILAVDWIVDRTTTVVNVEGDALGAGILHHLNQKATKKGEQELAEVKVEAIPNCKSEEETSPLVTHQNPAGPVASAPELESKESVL
# UniProt P49914: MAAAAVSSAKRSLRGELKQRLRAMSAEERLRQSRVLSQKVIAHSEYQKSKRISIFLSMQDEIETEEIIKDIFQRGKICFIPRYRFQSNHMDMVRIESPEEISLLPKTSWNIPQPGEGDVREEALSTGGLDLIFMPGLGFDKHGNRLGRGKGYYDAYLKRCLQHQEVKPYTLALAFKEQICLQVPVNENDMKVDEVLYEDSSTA
# UniProt P51608, whole entry: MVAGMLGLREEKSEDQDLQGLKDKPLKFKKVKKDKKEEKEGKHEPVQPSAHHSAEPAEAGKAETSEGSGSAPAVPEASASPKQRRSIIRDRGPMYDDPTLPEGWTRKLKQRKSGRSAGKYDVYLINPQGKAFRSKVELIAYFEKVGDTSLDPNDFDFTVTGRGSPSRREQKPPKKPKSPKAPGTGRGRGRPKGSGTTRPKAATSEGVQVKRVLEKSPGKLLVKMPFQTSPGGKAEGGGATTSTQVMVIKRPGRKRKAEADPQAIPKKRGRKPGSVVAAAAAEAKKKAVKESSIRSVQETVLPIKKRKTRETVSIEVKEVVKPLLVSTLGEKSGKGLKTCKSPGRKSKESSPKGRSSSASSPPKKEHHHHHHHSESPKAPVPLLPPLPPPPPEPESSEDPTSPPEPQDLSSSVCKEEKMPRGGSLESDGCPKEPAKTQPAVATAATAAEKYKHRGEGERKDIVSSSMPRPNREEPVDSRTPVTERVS
# UniProt P49005: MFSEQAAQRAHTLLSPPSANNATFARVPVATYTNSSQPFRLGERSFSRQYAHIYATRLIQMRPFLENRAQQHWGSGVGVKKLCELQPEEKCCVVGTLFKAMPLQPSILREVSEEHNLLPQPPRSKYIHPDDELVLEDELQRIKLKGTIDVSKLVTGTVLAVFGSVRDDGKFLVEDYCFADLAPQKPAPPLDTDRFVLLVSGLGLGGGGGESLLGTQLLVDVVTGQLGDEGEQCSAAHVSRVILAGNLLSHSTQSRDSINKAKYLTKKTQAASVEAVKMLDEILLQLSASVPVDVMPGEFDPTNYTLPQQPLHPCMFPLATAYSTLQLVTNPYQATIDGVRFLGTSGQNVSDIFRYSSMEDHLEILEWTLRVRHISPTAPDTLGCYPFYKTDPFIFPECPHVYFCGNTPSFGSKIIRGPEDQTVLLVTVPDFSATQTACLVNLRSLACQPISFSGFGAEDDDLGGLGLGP
# UniProt P50991: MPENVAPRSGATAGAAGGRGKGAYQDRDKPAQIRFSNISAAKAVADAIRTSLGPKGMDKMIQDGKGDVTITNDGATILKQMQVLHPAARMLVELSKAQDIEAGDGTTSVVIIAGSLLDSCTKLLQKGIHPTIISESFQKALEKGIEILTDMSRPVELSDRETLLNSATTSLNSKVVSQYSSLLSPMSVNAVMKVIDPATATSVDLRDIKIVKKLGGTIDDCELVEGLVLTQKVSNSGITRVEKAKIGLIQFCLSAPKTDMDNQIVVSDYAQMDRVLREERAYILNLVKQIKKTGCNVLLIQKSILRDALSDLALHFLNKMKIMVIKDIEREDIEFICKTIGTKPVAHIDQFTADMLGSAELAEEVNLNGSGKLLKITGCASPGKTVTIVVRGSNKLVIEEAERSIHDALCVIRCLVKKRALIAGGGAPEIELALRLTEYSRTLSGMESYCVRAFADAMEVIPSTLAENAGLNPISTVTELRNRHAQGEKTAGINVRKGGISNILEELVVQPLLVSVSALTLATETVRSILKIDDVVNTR
# UniProt P36543, whole entry: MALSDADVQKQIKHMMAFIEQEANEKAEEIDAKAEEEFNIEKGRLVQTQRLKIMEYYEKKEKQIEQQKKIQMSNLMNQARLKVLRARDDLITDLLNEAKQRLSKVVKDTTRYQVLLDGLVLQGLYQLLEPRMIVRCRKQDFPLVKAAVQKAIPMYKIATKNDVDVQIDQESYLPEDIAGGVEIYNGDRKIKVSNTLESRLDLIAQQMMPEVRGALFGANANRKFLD
# UniProt P51798: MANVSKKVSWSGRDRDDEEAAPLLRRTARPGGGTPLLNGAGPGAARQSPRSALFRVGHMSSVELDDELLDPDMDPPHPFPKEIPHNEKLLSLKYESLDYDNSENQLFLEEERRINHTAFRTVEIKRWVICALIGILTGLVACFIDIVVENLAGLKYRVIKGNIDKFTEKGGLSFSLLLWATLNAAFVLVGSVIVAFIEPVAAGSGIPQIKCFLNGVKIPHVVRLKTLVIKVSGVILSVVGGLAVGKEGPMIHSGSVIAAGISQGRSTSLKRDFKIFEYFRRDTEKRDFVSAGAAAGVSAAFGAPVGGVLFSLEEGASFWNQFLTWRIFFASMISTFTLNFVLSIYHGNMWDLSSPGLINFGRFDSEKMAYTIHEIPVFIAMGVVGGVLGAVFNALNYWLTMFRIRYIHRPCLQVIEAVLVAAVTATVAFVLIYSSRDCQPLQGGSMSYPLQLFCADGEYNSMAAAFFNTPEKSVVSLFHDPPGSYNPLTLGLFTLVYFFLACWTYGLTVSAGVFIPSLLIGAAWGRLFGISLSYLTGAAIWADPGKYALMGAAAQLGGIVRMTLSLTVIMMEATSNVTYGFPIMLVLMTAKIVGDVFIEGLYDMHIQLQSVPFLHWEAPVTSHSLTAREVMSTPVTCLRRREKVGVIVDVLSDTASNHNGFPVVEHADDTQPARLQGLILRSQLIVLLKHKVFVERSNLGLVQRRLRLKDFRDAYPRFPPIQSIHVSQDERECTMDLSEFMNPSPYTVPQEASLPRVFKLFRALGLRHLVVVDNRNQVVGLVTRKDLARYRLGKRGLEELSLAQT
# Compound: Nc1ncnc2c1ncn2[C@@H]1O[C@H](COP(=O)(O)OP(=O)(O)OP(=O)(O)O)[C@@H](O)[C@H]1O [adenosine triphosphate]
# Assay: NP40-soluble protein abundance relative to vehicle (solubility fold change) (ratio); higher = more soluble protein in presence of ATP
# Outline: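 Crude Jurkat lysate, prepared by Dounce homogenisation, was exposed to eight concentrations from 0.1 to 10 mM for 10 min at room temperature and then 3 min at 37 °C. Solubilisation used 0.8% NP40 with benzonase for 60 min at 4 °C, followed by ultracentrifugation and TMT labelling of the supernatant for LC-MS/MS. After vsn normalisation of intensities, each value is the fold change against the detergent-processed vehicle within each replicate, across three independent experiments.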
Target,NP40-soluble protein abundance (concentration: 1mM),NP40-soluble protein abundance (concentration: 2mM),NP40-soluble protein abundance (concentration: 4mM),NP40-soluble protein abundance (concentration: 6mM),NP40-soluble protein abundance (concentration: 8mM),NP40-soluble protein abundance (concentration: 10mM)
UniProt P49768 and related entries,0.751 ± 0.082,0.784 ± 0.015,0.733 ± 0.041,0.737 ± 0.066,0.741 ± 0.038,0.834 ± 0.013
VASP (UniProt P50552),0.952 ± 0.075,0.952 ± 0.041,0.942 ± 0.064,0.976 ± 0.038,0.915 ± 0.048,0.917 ± 0.035
DHPS (UniProt P49366),0.994 ± 0.014,0.993 ± 0.017,0.977 ± 0.018,0.993 ± 0.015,0.976 ± 0.011,0.96 ± 0.025
HMGCL (UniProt P35914),0.916 ± 0.02,0.936 ± 0.039,0.929 ± 0.0096,0.944 ± 0.044,0.893 ± 0.021,0.914 ± 0.052
IQGAP1 (UniProt P46940),0.977 ± 0.063,0.983 ± 0.042,0.948 ± 0.029,0.947 ± 0.078,0.96 ± 0.02,0.971 ± 0.033
UniProt P36542 and related entries,0.964 ± 0.068,0.919 ± 0.049,0.89 ± 0.036,0.883 ± 0.045,0.918 ± 0.026,0.899 ± 0.057
GNL1 (UniProt P36915),1.03 ± 0.014,1.03 ± 0.023,1.03 ± 0.022,1.02 ± 0.053,1.05 ± 0.029,1.01 ± 0.034
PTDSS1 (UniProt P48651),1.1 ± 0.013,1.14 ± 0.088,1.24 ± 0.048,1.33 ± 0.077,1.4 ± 0.082,1.47 ± 0.041
UniProt P52564,1.01 ± 0.057,0.998 ± 0.047,1.01 ± 0.056,0.98 ± 0.057,0.98 ± 0.043,0.965 ± 0.02
UniProt P50548 and related entries,1.08 ± 0.045,1.09 ± 0.085,0.998 ± 0.13,0.967 ± 0.077,0.959 ± 0.035,1.06 ± 0.13
PRIM1 (UniProt P49642),0.972 ± 0.038,0.961 ± 0.033,0.938 ± 0.059,0.946 ± 0.02,0.955 ± 0.053,0.958 ± 0.033
UniProt P36954,1.03 ± 0.073,1.07 ± 0.041,1.05 ± 0.049,1.11 ± 0.1,1.08 ± 0.025,1.07 ± 0.069
HTT (UniProt P42858),1.04 ± 0.026,1.01 ± 0.017,0.986 ± 0.015,0.963 ± 0.031,0.987 ± 0.013,0.978 ± 0.036
ANP32A (UniProt P39687),0.908 ± 0.14,0.878 ± 0.13,0.828 ± 0.06,0.91 ± 0.12,0.806 ± 0.019,0.748 ± 0.12
DUSP3 (UniProt P51452),0.965 ± 0.036,0.992 ± 0.055,1 ± 0.087,0.958 ± 0.051,0.946 ± 0.047,0.94 ± 0.077
UniProt P51532-2|P51532-3|P51532-4|P51532-5|Q9HBD4 and related entries,1.05 ± 0.053,1.03 ± 0.061,1.02 ± 0.058,1.08 ± 0.13,1.06 ± 0.086,1.07 ± 0.079
UniProt P43487 and related entries,0.957 ± 0.13,0.93 ± 0.044,0.932 ± 0.038,1.01 ± 0.08,0.937 ± 0.037,0.858 ± 0.062
PPOX (UniProt P50336),0.999 ± 0.15,0.923 ± 0.14,0.967 ± 0.097,0.894 ± 0.18,1.06 ± 0.14,0.935 ± 0.063
CCT6A (UniProt P40227),1.04 ± 0.24,0.87 ± 0.2,0.898 ± 0.1,0.697 ± 0.18,0.902 ± 0.082,0.75 ± 0.18
UniProt P45985,1 ± 0.024,1.02 ± 0.016,0.983 ± 0.037,0.997 ± 0.037,0.958 ± 0.035,0.992 ± 0.046

Target,NP40-soluble protein abundance (concentration: 1mM),NP40-soluble protein abundance (concentration: 2mM),NP40-soluble protein abundance (concentration: 4mM),NP40-soluble protein abundance (concentration: 6mM),NP40-soluble protein abundance (concentration: 8mM),NP40-soluble protein abundance (concentration: 10mM)
UniProt P37275-2|P37275-5,0.947 ± 0.072,0.967 ± 0.046,0.955 ± 0.038,0.983 ± 0.046,0.939 ± 0.025,0.97 ± 0.043
CCT3 (UniProt P49368),0.977 ± 0.074,0.904 ± 0.037,0.844 ± 0.03,0.83 ± 0.11,0.864 ± 0.067,0.834 ± 0.063
UniProt P45880 and related entries,0.964 ± 0.046,0.953 ± 0.038,0.909 ± 0.048,0.906 ± 0.062,0.907 ± 0.022,0.91 ± 0.02
CENPF (UniProt P49454),0.996 ± 0.049,1.04 ± 0.043,1.05 ± 0.042,1.09 ± 0.045,1.04 ± 0.024,1.07 ± 0.015
UniProt P36639 and related entries,0.989 ± 0.028,0.966 ± 0.049,0.939 ± 0.025,0.983 ± 0.056,0.96 ± 0.047,0.948 ± 0.045
ATP6V1A (UniProt P38606),1.01 ± 0.035,0.981 ± 0.021,0.969 ± 0.042,0.933 ± 0.059,0.986 ± 0.033,0.97 ± 0.028
RPL29 (UniProt P47914),0.965 ± 0.17,0.965 ± 0.26,0.908 ± 0.18,0.903 ± 0.27,0.616 ± 0.062,0.923 ± 0.19
UniProt P46108 and related entries,1.03 ± 0.038,1.005 ± 0.0089,1.04 ± 0.066,0.992 ± 0.036,1.02 ± 0.056,1.03 ± 0.072
PTPN9 (UniProt P43378),1.12 ± 0.086,1.01 ± 0.04,1.01 ± 0.078,1.05 ± 0.024,0.997 ± 0.014,1.02 ± 0.049
PGM1 (UniProt P36871),0.985 ± 0.069,0.958 ± 0.061,0.92 ± 0.042,0.935 ± 0.099,0.936 ± 0.051,0.936 ± 0.051
MAPKAPK2 (UniProt P49137),0.959 ± 0.032,0.936 ± 0.024,0.923 ± 0.041,0.954 ± 0.012,0.92 ± 0.043,0.917 ± 0.029
CASP2 (UniProt P42575),1.06 ± 0.11,1.02 ± 0.086,1.02 ± 0.097,1.03 ± 0.13,0.998 ± 0.12,0.991 ± 0.07
UniProt P49902 and related entries,1.05 ± 0.11,1.01 ± 0.097,1.04 ± 0.096,0.874 ± 0.18,1.03 ± 0.042,1.04 ± 0.053
UniProt P49336 and related entries,1.08 ± 0.074,1 ± 0.12,0.988 ± 0.067,1.07 ± 0.12,1.03 ± 0.056,1.01 ± 0.035
UniProt P49796 and related entries,0.956 ± 0.057,0.973 ± 0.041,0.972 ± 0.026,0.942 ± 0.053,0.902 ± 0.021,0.935 ± 0.042
HDGF (UniProt P51858),0.93 ± 0.083,0.931 ± 0.027,0.904 ± 0.026,0.979 ± 0.051,0.882 ± 0.011,0.896 ± 0.028
MTOR (UniProt P42345),1.06 ± 0.084,1.03 ± 0.053,1.03 ± 0.063,0.987 ± 0.065,1.05 ± 0.022,1.04 ± 0.031
UniProt P50613,0.998 ± 0.079,1.01 ± 0.061,1 ± 0.053,1.01 ± 0.1,1.02 ± 0.04,1.04 ± 0.029
CASP3 (UniProt P42574),0.997 ± 0.073,0.992 ± 0.043,0.989 ± 0.078,0.963 ± 0.064,0.975 ± 0.079,0.985 ± 0.011
UniProt P46934-4,1.03 ± 0.064,1.05 ± 0.029,1.05 ± 0.046,0.997 ± 0.087,1.04 ± 0.051,1.03 ± 0.031

Target,NP40-soluble protein abundance (concentration: 1mM),NP40-soluble protein abundance (concentration: 2mM),NP40-soluble protein abundance (concentration: 4mM),NP40-soluble protein abundance (concentration: 6mM),NP40-soluble protein abundance (concentration: 8mM),NP40-soluble protein abundance (concentration: 10mM)
UniProt P36956 and related entries,0.959 ± 0.042,1.02 ± 0.076,1.02 ± 0.13,1 ± 0.12,0.969 ± 0.082,0.983 ± 0.11
CDKN2C (UniProt P42773),0.893 ± 0.098,0.922 ± 0.14,0.888 ± 0.075,0.897 ± 0.1,0.839 ± 0.052,0.815 ± 0.11
SLC1A4 (UniProt P43007),0.977 ± 0.068,1.01 ± 0.033,0.976 ± 0.057,0.975 ± 0.025,0.98 ± 0.051,0.921 ± 0.079
UniProt P52888 and related entries,0.989 ± 0.036,0.962 ± 0.041,0.953 ± 0.037,0.942 ± 0.077,0.97 ± 0.021,0.933 ± 0.039
RASSF2 (UniProt P50749),0.993 ± 0.066,1.04 ± 0.069,1.03 ± 0.037,0.975 ± 0.088,1.04 ± 0.045,1.01 ± 0.034
MTHFS (UniProt P49914),0.992 ± 0.029,0.99 ± 0.038,0.976 ± 0.045,0.983 ± 0.071,0.959 ± 0.038,0.939 ± 0.036
UniProt P49589 and related entries,1.012 ± 0.0024,0.975 ± 0.023,0.947 ± 0.025,0.977 ± 0.024,0.962 ± 0.032,0.944 ± 0.025
UniProt P51608-2,1.01 ± 0.061,1.03 ± 0.037,1.06 ± 0.03,1.11 ± 0.035,1.09 ± 0.032,1.13 ± 0.034
TRAPPC10 (UniProt P48553),1.08 ± 0.022,1 ± 0.015,1.06 ± 0.093,0.989 ± 0.061,1.06 ± 0.1,1.046 ± 0.0087
UniProt P49588 and related entries,1 ± 0.014,0.972 ± 0.029,0.953 ± 0.021,0.995 ± 0.044,0.965 ± 0.037,0.939 ± 0.042
POLD2 (UniProt P49005),1.04 ± 0.026,1.02 ± 0.057,1.03 ± 0.025,0.974 ± 0.056,1.05 ± 0.049,0.993 ± 0.056
UBA7 (UniProt P41226),1.01 ± 0.062,1.01 ± 0.033,1.04 ± 0.085,1.04 ± 0.046,0.999 ± 0.085,0.9871 ± 0.0038
CCT4 (UniProt P50991),0.911 ± 0.082,0.809 ± 0.075,0.798 ± 0.037,0.795 ± 0.12,0.835 ± 0.073,0.795 ± 0.061
PRCP (UniProt P42785),0.892 ± 0.045,0.933 ± 0.025,0.913 ± 0.037,0.893 ± 0.037,0.871 ± 0.067,0.921 ± 0.035
RPL5 (UniProt P46777),0.898 ± 0.037,0.889 ± 0.054,0.856 ± 0.059,0.837 ± 0.058,0.763 ± 0.02,0.863 ± 0.042
ATP6V1E1 (UniProt P36543),0.961 ± 0.038,0.942 ± 0.022,0.896 ± 0.028,0.938 ± 0.045,0.909 ± 0.018,0.877 ± 0.029
UniProt P51795-2|P51795,1.03 ± 0.12,0.958 ± 0.03,1.05 ± 0.13,0.96 ± 0.072,0.988 ± 0.055,0.972 ± 0.051
UniProt P50570-4|P50570,1.02 ± 0.045,1.03 ± 0.056,1.01 ± 0.048,0.993 ± 0.11,1 ± 0.06,1.01 ± 0.034
UniProt P45974 and related entries,0.995 ± 0.01,0.981 ± 0.02,0.957 ± 0.021,0.983 ± 0.029,0.953 ± 0.052,0.94 ± 0.035
UniProt P51798 and related entries,1.04 ± 0.029,0.97 ± 0.022,0.999 ± 0.034,1.01 ± 0.029,1 ± 0.028,0.983 ± 0.035

# Record cards, as listed above.
# CENPF (UniProt P49454) is entered as NP40-soluble protein abundance (concentration: 1mM): 0.996 ± 0.049; NP40-soluble protein abundance (concentration: 2mM): 1.04 ± 0.043; NP40-soluble protein abundance (concentration: 4mM): 1.05 ± 0.042; NP40-soluble protein abundance (concentration: 6mM): 1.09 ± 0.045; NP40-soluble protein abundance (concentration: 8mM): 1.04 ± 0.024; NP40-soluble protein abundance (concentration: 10mM): 1.07 ± 0.015
# PRIM1 (UniProt P49642) is entered as NP40-soluble protein abundance (concentration: 1mM): 0.972 ± 0.038; NP40-soluble protein abundance (concentration: 2mM): 0.961 ± 0.033; NP40-soluble protein abundance (concentration: 4mM): 0.938 ± 0.059; NP40-soluble protein abundance (concentration: 6mM): 0.946 ± 0.02; NP40-soluble protein abundance (concentration: 8mM): 0.955 ± 0.053; NP40-soluble protein abundance (concentration: 10mM): 0.958 ± 0.033
# UniProt P46934-4 is entered as NP40-soluble protein abundance (concentration: 1mM): 1.03 ± 0.064; NP40-soluble protein abundance (concentration: 2mM): 1.05 ± 0.029; NP40-soluble protein abundance (concentration: 4mM): 1.05 ± 0.046; NP40-soluble protein abundance (concentration: 6mM): 0.997 ± 0.087; NP40-soluble protein abundance (concentration: 8mM): 1.04 ± 0.051; NP40-soluble protein abundance (concentration: 10mM): 1.03 ± 0.031
# UniProt P51798 and related entries is entered as NP40-soluble protein abundance (concentration: 1mM): 1.04 ± 0.029; NP40-soluble protein abundance (concentration: 2mM): 0.97 ± 0.022; NP40-soluble protein abundance (concentration: 4mM): 0.999 ± 0.034; NP40-soluble protein abundance (concentration: 6mM): 1.01 ± 0.029; NP40-soluble protein abundance (concentration: 8mM): 1 ± 0.028; NP40-soluble protein abundance (concentration: 10mM): 0.983 ± 0.035
